Test results: PubChem BioAssay AID2551 (National Center for Advancing Translational Sciences (NCATS), 2010)
Out of some 310,000 compounds screened, about 17,000 (5.5%) were called active. This list was built around the results that the source calls inconclusive (neither active nor inactive); the mix of calls is not that of the screen. Calls come from the whole dose curve; as a rule, active = well fitted inhibition curve with a large enough effect; inconclusive = small, poorly fitted or top-dose-only effect, or effect the other way; inactive = no such curve, though single readings can be large or run the other way. A potency beside an inconclusive call is a rough fit, not a confirmed value.

Chains of the proteins cited; added tags and fusions are not shown. Lines headed by an entry give the natural chain unless they say otherwise; changes in a name come on top.
UniProt P51450: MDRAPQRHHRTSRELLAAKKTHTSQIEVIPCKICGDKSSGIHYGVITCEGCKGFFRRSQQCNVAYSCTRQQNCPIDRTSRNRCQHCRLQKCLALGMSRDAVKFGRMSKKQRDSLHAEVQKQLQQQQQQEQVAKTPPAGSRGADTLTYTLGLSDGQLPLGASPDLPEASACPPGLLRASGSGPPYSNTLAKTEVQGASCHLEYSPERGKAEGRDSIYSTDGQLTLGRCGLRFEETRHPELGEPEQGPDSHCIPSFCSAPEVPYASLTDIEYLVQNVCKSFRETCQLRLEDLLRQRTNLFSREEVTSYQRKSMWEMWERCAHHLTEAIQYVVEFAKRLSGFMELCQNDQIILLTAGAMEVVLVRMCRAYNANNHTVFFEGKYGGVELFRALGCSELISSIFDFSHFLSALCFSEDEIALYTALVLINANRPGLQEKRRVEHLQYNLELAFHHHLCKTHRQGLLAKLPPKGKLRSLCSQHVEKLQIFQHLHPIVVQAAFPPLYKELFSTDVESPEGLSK

target: Nuclear receptor ROR-gamma (Mus musculus) (UniProt P51450); experiment: qHTS for inhibitors of ROR gamma transcriptional activity; settings: Drosophila S2 Gal4-RORgamma UAS-luciferase reporter, 20 h; activity change, negative = inhibition: at 53.6 µM (top of the series); note: nearly all actives have a fitted effect of over 60% in size
Procedure, shortened: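 ROR gamma transcriptional activity was tracked as Gal4-UAS luciferase output in stably transfected Drosophila Schneider cells, with compound added 1 hr before 700 uM copper sulfate induction and a 20 hr ambient-temperature incubation.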
% is set by controls: 0 for no effect and ±100 for the full control effect; potency is the fitted concentration of half-maximal effect.

| Structure (SMILES) | Potency | activity change, negative = inhibition |
| --- | --- | --- |
| Cc1nn(-c2ccccc2)c(N)c1Sc1ccc([N+](=O)[O-])cc1 | inconclusive: 17.8 µM [activator, single point] |  |
| CC(=O)c1cccc(NC(=S)NC(=O)C(C)C)c1 | active: 12.6 µM |  |
| CC1N(C)c2cc(NC(=O)c3cccs3)c(P(=O)(Nc3ccc([N+](=O)[O-])cc3)N3CCOCC3)cc2C1(C)C (stereo not drawn) | inconclusive: 14.1 µM [activator, single point] |  |
| C/C(=N\NC(=S)NCCc1ccccc1)c1ccc(C)cc1 | active: 2.82 µM |  |
| Cc1ccc(S(=O)(=O)CNC(=O)c2ccccc2)cc1 | inconclusive: 3.55 µM [activator, partial curve, poor fit] |  |
| COCCNC(=S)N/N=C(\C)c1ccc(Cl)c(Cl)c1Cl | active: 3.98 µM |  |
| COc1nc(N(CC(N)=O)S(=O)(=O)c2ccccc2)nc(C)c1Cl | inconclusive: 0.1 µM [activator, single point] |  |
| c1coc(-c2nnc3n2C2(CCCC2)Cc2ccccc2-3)c1 |  | inactive: -12.1% [at 0.365 µM] |
| COc1ccc(C2Oc3ccccc3N2C(C)=O)cc1 (stereo not drawn) | inactive |  |
| Cc1ccc(O)c(NC(=O)CCC2CCCCC2)c1 | inactive |  |
| CC(C)N1CCc2c(sc(NC(=O)c3ccc(S(=O)(=O)N4CCCCC4C)cc3)c2C(N)=O)C1 (stereo not drawn) | inconclusive: 35.5 µM [inhibitor, single point] |  |
| Cc1ccc(N(CC(O)Cn2nc(C)cc2C)S(=O)(=O)c2ccc3ccccc3c2)cc1 (stereo not drawn) | inconclusive: 35.5 µM [inhibitor, single point] |  |
| COc1ccc(Cn2c(=O)[nH]c3cc(C(=O)N4CCN(Cc5ccccc5)CC4)ccc3c2=O)cc1 | inconclusive: 25.1 µM [activator, single point] |  |
| CCOC(=O)N1N=C(c2ccccc2)CC1(O)C(C)(F)F (stereo not drawn) | inactive |  |
| COc1ccc(NS(=O)(=O)c2ccc3oc(SCc4ccc(F)cc4)nc3c2)cc1 | inconclusive: 17.8 µM [activator, partial curve] |  |
| Brc1ccc(N=NNc2ccccc2)cc1 | inconclusive: 2.82 µM [activator, full curve] |  |
| CCOc1ccc(N(C)S(=O)(=O)c2ccc(-c3cc(C)no3)s2)cc1 | inconclusive: 15.8 µM [activator, single point] |  |
| Cn1c(C(=O)N2CCC(C(=O)N3CCOCC3)CC2)cc2sccc21 | inactive |  |
| Clc1ccc(/C=C\c2nccc3c2[nH]c2ccccc23)cc1 | active: 1.58 µM |  |
| Cc1ccc(S(=O)(=O)c2nnn3c2nc(NC2CCN(Cc4ccccc4)CC2)c2ccccc23)cc1C | inconclusive: 35.5 µM [inhibitor, single point] |  |
| CN1CCCN(Cc2ccc(Cl)cc2Cl)CC1 | inconclusive: 14.1 µM [inhibitor, single point] |  |
| COc1ccc(Cl)cc1NC(=S)NCc1cccs1 | active: 10 µM |  |
| Cc1cccc(C)c1NC(=O)CS(=O)CC(=O)NC1CCN(Cc2ccccc2)CC1 (stereo not drawn) | inconclusive: 11.2 µM [activator, partial curve] |  |
| O=C(NC1CCN(Cc2ccccc2)CC1)c1cccc(OC(F)F)c1 | inactive |  |

| Structure (SMILES) | Potency | activity change, negative = inhibition |
| --- | --- | --- |
| O=[N+]([O-])c1cccc(-c2nc(-c3ccccn3)no2)c1 | active: 11.2 µM |  |
| c1ccc(CSc2nnc(-c3ccco3)c(-c3ccco3)n2)cc1 | inconclusive: 35.5 µM [inhibitor, single point] |  |
| O=C(CCc1nc2ccccc2[nH]1)Nc1ccccc1 | inconclusive: 8.91 µM [activator, partial curve] |  |
| CC(=O)c1ccc2oc3ccccc3c(=O)c2c1 | inactive |  |
| [O-]/[N+](=C\C=C\c1ccccc1)c1ccccc1 | inactive |  |
| Cc1cc(C(=O)N/N=C/c2ccc3c(c2)OCO3)c(C)o1 | inconclusive: 35.5 µM [inhibitor, single point] |  |
| Cc1ccc2c(Cl)cc(Cl)c(OCC(=O)NC3CCS(=O)(=O)C3)c2n1 (stereo not drawn) | active: 8.91 µM |  |
| CCC(=O)N1CCN(c2ccc(NC(=O)c3ccc(C#N)cc3F)cc2Cl)CC1 | inconclusive: 35.5 µM [inhibitor, single point] |  |
| CCOC(=O)c1cnc2ccc(OC)cc2c1NCc1ccccc1 | inconclusive: 20 µM [inhibitor, single point] |  |
| O=C(NC1CCCCC1)c1ccc(CNc2nc(=S)[nH]c3ccccc23)cc1 | active: 12.6 µM |  |
| CCCOc1ccc(/C=N/Nc2cc(N3CCOCC3)ncn2)c(O)c1 | inconclusive: 14.1 µM [inhibitor, single point] |  |
| COC(=O)c1cccc2c1-c1ccccc1/C2=N/O | active: 14.1 µM |  |
| CCC(C)(C)n1nnnc1C(c1cc2cc(OC)c(OC)cc2[nH]c1=O)N1CCc2ccccc21 (stereo not drawn) | inactive |  |
| Cc1ccc(CN2CCc3c(OCC(=O)Nc4cc(C)ccc4C)cccc3C2=O)cc1 | inconclusive: 11.2 µM [activator, partial curve] |  |
| COc1ccc(NC(=S)N/N=C2/CCCc3c(C)cc(C)cc32)cc1 | active: 2.82 µM |  |
| COC(=O)C1=CN(Cc2ccc(OC)c(OC)c2)C=C(C(=O)OC)C1c1ccc(F)cc1 | inconclusive: 14.1 µM [activator, partial curve] |  |
| Cc1ccc(S(=O)(=O)ON2C(=O)c3ccccc3C2=O)c(C)c1 | active: 20 µM |  |
| CN(C)c1cccc(C(=O)Nc2cccc(S(=O)(=O)NC3=NCCC3)c2)c1 | inactive |  |
| COc1ccc(C(=O)c2cc(C(C)=O)c(Nc3ccccc3)s2)cc1 | inconclusive: 8.91 µM [activator, partial curve] |  |
| CCCCCCCCCCCCCC(=O)OCC(COP(=O)([O-])OCC[N+](C)(C)C)OC(=O)CCCCCCCCCCCCC (stereo not drawn) | inactive |  |
| N#Cc1ccsc1NC(=O)c1ccccn1 | active: 2.82 µM |  |
| O=C(Cc1ccc(Cl)cc1)Nc1ccncc1 | inconclusive: 6.31 µM [inhibitor, partial curve, poor fit] |  |
| O=C(/C=C/c1cccc([N+](=O)[O-])c1)NCCSCc1ccco1 | inconclusive: 17.8 µM [activator, single point] |  |
| O=C(CCS(=O)(=O)Cc1ccccc1)Nc1nnc(C(F)(F)F)s1 | inconclusive: 11.2 µM [activator, single point] |  |

Among those listed so far, 4 contain a furan ring, fused or not:

| Structure (SMILES) | Potency | activity change, negative = inhibition |
| --- | --- | --- |
| c1coc(-c2nnc3n2C2(CCCC2)Cc2ccccc2-3)c1 |  | inactive: -12.1% [at 0.365 µM] |
| c1ccc(CSc2nnc(-c3ccco3)c(-c3ccco3)n2)cc1 | inconclusive: 35.5 µM [inhibitor, single point] |  |
| Cc1cc(C(=O)N/N=C/c2ccc3c(c2)OCO3)c(C)o1 | inconclusive: 35.5 µM [inhibitor, single point] |  |
| O=C(/C=C/c1cccc([N+](=O)[O-])c1)NCCSCc1ccco1 | inconclusive: 17.8 µM [activator, single point] |  |
